## Percent effect of library compounds

Sequences of proteins named here, by UniProt entry; tags and fusion partners are left off. Residues count along the entry.
UniProt Q4DA54, 1-478: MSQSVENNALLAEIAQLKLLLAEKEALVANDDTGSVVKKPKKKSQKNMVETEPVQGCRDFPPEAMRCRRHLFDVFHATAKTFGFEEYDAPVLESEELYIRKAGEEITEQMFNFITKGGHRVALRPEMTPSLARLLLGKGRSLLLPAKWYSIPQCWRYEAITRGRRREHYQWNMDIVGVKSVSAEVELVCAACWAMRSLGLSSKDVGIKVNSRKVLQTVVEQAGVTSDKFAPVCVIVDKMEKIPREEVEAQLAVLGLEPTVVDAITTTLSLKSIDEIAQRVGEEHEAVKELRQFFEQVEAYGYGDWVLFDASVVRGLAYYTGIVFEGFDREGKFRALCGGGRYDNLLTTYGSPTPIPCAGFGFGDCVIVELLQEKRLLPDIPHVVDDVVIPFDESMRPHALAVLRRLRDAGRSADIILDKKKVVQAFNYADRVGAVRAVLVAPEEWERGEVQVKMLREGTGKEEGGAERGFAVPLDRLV
UniProt Q8IDJ8, 1-583: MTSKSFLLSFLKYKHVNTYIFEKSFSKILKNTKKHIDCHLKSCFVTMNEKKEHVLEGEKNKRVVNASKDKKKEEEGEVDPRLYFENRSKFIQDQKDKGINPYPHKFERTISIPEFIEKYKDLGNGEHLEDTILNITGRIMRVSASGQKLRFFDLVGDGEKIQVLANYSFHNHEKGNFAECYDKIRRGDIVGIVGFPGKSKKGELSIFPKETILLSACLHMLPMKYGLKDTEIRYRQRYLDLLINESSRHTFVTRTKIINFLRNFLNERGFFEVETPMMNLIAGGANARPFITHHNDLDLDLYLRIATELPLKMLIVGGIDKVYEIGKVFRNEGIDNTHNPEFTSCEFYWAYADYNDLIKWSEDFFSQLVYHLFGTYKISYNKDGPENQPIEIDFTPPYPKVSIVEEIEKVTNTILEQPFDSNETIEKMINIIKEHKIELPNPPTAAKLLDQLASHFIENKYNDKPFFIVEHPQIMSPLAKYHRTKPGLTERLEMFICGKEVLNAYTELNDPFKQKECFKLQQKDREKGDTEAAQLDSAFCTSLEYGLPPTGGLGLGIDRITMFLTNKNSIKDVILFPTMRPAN

Values are the deposited “Percent Effect”, in %. The record does not define 0% and 100%; most values in the screen are far below 50% and negative numbers occur (in some assays of this library far below -100). This is an unselected part of the compounds tested.

TcHisRS: 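Histidine-tRNA ligase, Trypanosoma cruzi CL Brener (UniProt Q4DA54). Enzyme assay of histidyl-tRNA synthetase; the read-out is not stated. Concentration: 30 µM. Direction is inferred from retests: higher values go with stronger inhibition. Size under these conditions: about 69,000 compounds, about 31 of them at 50% or above in at least one test.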
PfKRS1: 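Enzyme assay of the cytosolic lysyl-tRNA synthetase in 384-well plates, read by luminescence. Target: Lysine-tRNA ligase, Plasmodium falciparum 3D7 (UniProt Q8IDJ8). Tested at 30 µM. Higher reads as stronger inhibition, judged from the few compounds that gave an IC50. Of about 69,000 compounds tested this way, about 49 (0.071%) reached 50% or more in at least one test.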

| # | Compound | TcHisRS | PfKRS1 |
|---|---|---|---|
| 1 | `CC1=NN(CC(=O)N2CC[C@@H]3[C@@H](CCC(=O)N3CC(C)C)C2)CC1` | 1.754% | 5.064% |
| 2 | `O=C(Cc1ccccc1)NCc1ncc(-c2ccccc2C(=O)O)cn1` | 4.545% | -0.6972% |
| 3 | `Cn1cccc1C(=O)N1CCC2(CC1)CN(c1ccsc1)C(=O)CO2` | -20.59% | 0.4702% |
| 4 | `O=C(c1coc2ccccc12)N1CCCC(O)(CO)CC1` (centres unmarked) | 9.211% | 3.354% |
| 5 | `Cc1cc(C(=O)N2CCN(C)CC2)nn1CC(=O)NCc1cccs1` | 10.88% | 7.372% |
| 6 | `CCOc1cc(C(=O)N2CCCC(n3cncn3)C2)ccc1C` (centres unmarked) | 1.149% | 2.915% |
| 7 | `c1cc(-c2ccc3c(c2)C2(CC3)CCN(c3nncs3)CC2)ccn1` | 13.16% | 6.056% |
| 8 | `Cc1nccn1Cc1nnc(C2CCCN(Cc3ccncc3)C2)n1C` (centres unmarked) | 0% | 5.114% |
| 9 | `CC(Cn1cncn1)NC(=O)NCc1csc(N(C)C)n1` (centres unmarked) | 11.34% | -0.3626% |
| 10 | `CN(Cc1cc(Br)cn1C)C(=O)c1ccsc1` | 4.615% | 2.159% |
| 11 | `CCc1noc(CC)c1CC(=O)N1CCCC(N2CCCCC2)C1` (centres unmarked) | -0.5128% | 1.991% |
| 12 | `CCOC[C@@H]1CCC[C@@]12CN(Cc1cccnc1)CCO2` | 9.804% | -0.403% |
| 13 | `CC1COCCN1Cc1nc(C(C)(C)C)no1` (centres unmarked) | 8.911% | 0.4931% |
| 14 | `Cn1nc(C2CCCN(Cc3ccc(F)cc3F)C2)c2nccnc21` (centres unmarked) | -1.064% | 0.7446% |
| 15 | `CC(C)Oc1cccc(C(=O)C2CCCN(C(=O)c3ccnn3C)C2)c1` (centres unmarked) | -2.5% | -2.19% |
| 16 | `COc1ncc(CN(CCCN2CCOCC2)Cc2ccc(C)o2)cn1` | 4.563% | -1.854% |
| 17 | `Cc1cc(C)n(CC2CN(Cc3cscn3)CCO2)n1` (centres unmarked) | -0.3802% | 5.3% |
| 18 | `COCCN1CC[C@@H]2O[C@H](COCc3csc(C)n3)CC[C@@H]21` | 6.897% | -3.948% |
| 19 | `Cc1ccc(N2CCCC(Nc3nn4cc(C)nc4s3)C2)nn1` (centres unmarked) | 6.25% | 6.18% |
| 20 | `Cc1cccc(N2CCC(NC(C)c3cccs3)CC2)n1` (centres unmarked) | -1.02% | -3.643% |
| 21 | `NS(=O)(=O)CC1CCCN1CCOc1ccccc1F` (centres unmarked) | -1.242% | 3.47% |
| 22 | `Cc1noc([C@]23COC[C@H]2CN(C(C)C)C3)n1` | 5.747% | 2.709% |
| 23 | `O=C(CCn1cccc1)NCc1ccc(CN2CCCCCC2)o1` | 11% | 1.693% |
| 24 | `CC(=O)N1CCC2(C1)c1ccccc1S(=O)(=O)N2Cc1ccccc1` (centres unmarked) | 4.02% | -0.2868% |
| 25 | `CC(C)C(=O)N1CCN(c2cc(N(C)C)cnn2)CC1` | 0% | 2.116% |
| 26 | `CC(C)=CCN1CCNC(=O)C1CC(=O)N1CCc2sccc2C1` (centres unmarked) | 3.061% | 2.239% |
| 27 | `OC1CN(c2nc3c(C(F)(F)F)cccc3s2)C1` | 12.98% | -2.211% |
| 28 | `O=C(OCC1CCCN1)c1cccc(NC(=O)c2ccco2)c1` (centres unmarked) | -3.704% | 6.329% |
| 29 | `O=C(NCc1nnc2ccccn12)N1CCc2sccc2C1` | 0.3759% | 2.202% |
| 30 | `Cn1ncc(NC(=O)Cn2ccc(-c3ccc(F)cc3)n2)n1` | 9.524% | 7.208% |
| 31 | `CC(C)COCC1CN(Cc2ccc3c(c2)OCO3)Cc2ncn(C)c21` (centres unmarked) | 11.23% | 3.745% |
| 32 | `Cc1ccc(S(=O)(=O)N2CCN(Cc3ccncc3)CC2)c(Cl)c1` | 10.45% | -1.697% |
| 33 | `Cc1cn(CC(=O)NC2CCC3(CC2)OCCO3)c2ccccc12` | 6.349% | 1.177% |
| 34 | `Cc1ccc(N2C[C@@H]3CN(Cc4ccoc4)CCO[C@@H]3C2)nn1` | -3.448% | -0.6057% |
| 35 | `Cc1noc([C@@H]2C[C@H]3OCC[C@H]3N(S(C)(=O)=O)C2)n1` | 3.306% | 0.9261% |
| 36 | `CCCc1nc(CN2CCN(Cc3noc(CCC)n3)CC2)no1` | 1.88% | 5.25% |
| 37 | `Cc1ocnc1C(=O)N(C)[C@@H]1CC[C@@H](n2ccnc2C)[C@@H]1O` | 4.857% | 0.8308% |
| 38 | `Cc1ccc(C(=O)N2CCSCC2)cc1NC(=O)NCC1CCC1` | -0.9804% | 2.323% |
| 39 | `Cc1cc(C)c(CNC(=O)NCC2Cc3ccccc32)c(=O)[nH]1` (centres unmarked) | 11.67% | 9.406% |
| 40 | `Cc1cc(C[C@@H]2COC[C@H]2NCc2ccc(C)c(C)c2)on1` | 5.993% | 1.681% |
| 41 | `CC(=O)N1CCC2(CCCN(S(=O)(=O)c3ccc(F)cc3)C2)C1` (centres unmarked) | 4.854% | 6.99% |
| 42 | `NC(=O)C1CCN(C(=O)NCc2cccnc2OCC(F)(F)F)C1` (centres unmarked) | 8.772% | 0.7777% |
| 43 | `Oc1cc(C2CCCCN2CC2CC2)nc(-c2ccncc2)n1` (centres unmarked) | 3.876% | 2.561% |
| 44 | `NC[C@H]1CC[C@H](C(NC(=O)CC2CCCCC2)c2ccccn2)CC1` (some centres unmarked) | 7.692% | 5.48% |
| 45 | `CC(C)CCNC(=O)c1ccc(-c2ccco2)[nH]c1=O` | 2.793% | 4.101% |
| 46 | `O=C1C(NS(=O)(=O)c2ccc(F)c(F)c2)CCN1Cc1ccccc1` (centres unmarked) | 4% | 1.565% |
| 47 | `Cc1occc1C(=O)N1Cc2nccn2CC(CN2CCCC2)C1` (centres unmarked) | 8.163% | 1.832% |
| 48 | `OCC1(NCc2cnc(-c3ccccn3)s2)CCOCC1` | 2.632% | -5.103% |
| 49 | `COC[C@@H]1CCC[C@@]12CN(C(=O)N1CCCC1)CCO2` | 3.518% | 2.173% |
| 50 | `COc1ccc(C(=O)N2CCO[C@H]3[C@@H](OCC4CC4)CC[C@@H]32)cc1F` | 5.063% | 17.71% |
| 51 | `CO[C@H]1CCN(Cc2c(C)noc2C)[C@@H]2CN(Cc3ccncc3)C[C@H]12` | 0% | 5.188% |
| 52 | `Cc1cc(C(=O)NCc2cnn(C)c2C)nc(N2CCCCCC2)n1` | 0% | 5.935% |
| 53 | `Cn1cnc(S(=O)(=O)NCCN2CCCCCC2)c1Cl` | 5.233% | 1.055% |
| 54 | `CC(=O)N1CC(=O)N(c2ccccc2)CC12CCN(Cc1cccs1)C2` (centres unmarked) | 2.703% | 8.78% |
| 55 | `CCc1nccn1C1CCCN(C(=O)c2ccc(NC3CC3)nc2)C1` (centres unmarked) | 1.775% | -0.379% |
| 56 | `COCC(=O)N1CCCN(Cc2c(C)nc3ccc(Cl)cn23)CC1` | -0.578% | 5.225% |
| 57 | `Cc1cccc2c1nc1n2[C@@H](CNC(=O)CCC(=O)O)COC1` | 8.696% | 2.598% |
| 58 | `CCCn1nc2c(cc1=O)CN(Cc1nc(C)c(C)o1)CC2` | 6.936% | -0.1058% |
| 59 | `CCc1n[nH]c(C2CN(C(=O)c3ccsc3)CCO2)n1` (centres unmarked) | -1.887% | 1.868% |
| 60 | `COc1cccc(NC(=O)NC(C)c2ccc3c(c2)CC(=O)N3)c1` (centres unmarked) | 4.255% | 3.656% |
| 61 | `COc1ccc(NC(=O)Cn2nc(C)c(C)cc2=O)cc1OC` | -2.5% | -4.163% |
| 62 | `c1ccc(OCCNC2CCCN(Cc3noc(C4CC4)n3)C2)cc1` (centres unmarked) | 6.286% | 0.342% |

For reference, 5 entries once more:

Compound	TcHisRS	PfKRS1
Cc1cccc(N2CCC(NC(C)c3cccs3)CC2)n1 (centres unmarked)	-1.02%	-3.643%
Cc1cn(CC(=O)NC2CCC3(CC2)OCCO3)c2ccccc12	6.349%	1.177%
CCCc1nc(CN2CCN(Cc3noc(CCC)n3)CC2)no1	1.88%	5.25%
Cc1noc([C@@H]2C[C@H]3OCC[C@H]3N(S(C)(=O)=O)C2)n1	3.306%	0.9261%
O=C(c1coc2ccccc12)N1CCCC(O)(CO)CC1 (centres unmarked)	9.211%	3.354%

From ChEMBL document CHEMBL3988442, “University of Dundee, Small-Polar-MMV Screening Library” (2021).